From patent publication US20090041754A1 come the findings set out here.

The chains behind the UniProt entries cited, without tags or fusion partners. Where a name states a change or a piece, a line headed by the entry shows the natural chain unless it says otherwise.
UniProt P03372: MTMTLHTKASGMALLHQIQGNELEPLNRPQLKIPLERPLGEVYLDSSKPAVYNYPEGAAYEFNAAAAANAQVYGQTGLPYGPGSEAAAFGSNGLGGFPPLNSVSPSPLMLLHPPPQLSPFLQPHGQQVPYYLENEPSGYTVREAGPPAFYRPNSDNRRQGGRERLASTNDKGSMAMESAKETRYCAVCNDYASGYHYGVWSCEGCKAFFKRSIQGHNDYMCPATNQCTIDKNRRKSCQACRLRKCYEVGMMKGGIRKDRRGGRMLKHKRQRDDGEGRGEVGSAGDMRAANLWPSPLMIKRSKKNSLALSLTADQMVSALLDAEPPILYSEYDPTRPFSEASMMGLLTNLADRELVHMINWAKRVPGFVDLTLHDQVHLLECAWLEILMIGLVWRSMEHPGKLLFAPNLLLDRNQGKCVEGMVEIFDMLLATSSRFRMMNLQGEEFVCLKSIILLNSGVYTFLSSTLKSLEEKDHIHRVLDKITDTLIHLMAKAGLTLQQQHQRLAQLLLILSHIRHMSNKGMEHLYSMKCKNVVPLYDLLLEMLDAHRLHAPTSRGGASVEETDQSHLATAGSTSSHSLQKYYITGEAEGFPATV
UniProt P34932: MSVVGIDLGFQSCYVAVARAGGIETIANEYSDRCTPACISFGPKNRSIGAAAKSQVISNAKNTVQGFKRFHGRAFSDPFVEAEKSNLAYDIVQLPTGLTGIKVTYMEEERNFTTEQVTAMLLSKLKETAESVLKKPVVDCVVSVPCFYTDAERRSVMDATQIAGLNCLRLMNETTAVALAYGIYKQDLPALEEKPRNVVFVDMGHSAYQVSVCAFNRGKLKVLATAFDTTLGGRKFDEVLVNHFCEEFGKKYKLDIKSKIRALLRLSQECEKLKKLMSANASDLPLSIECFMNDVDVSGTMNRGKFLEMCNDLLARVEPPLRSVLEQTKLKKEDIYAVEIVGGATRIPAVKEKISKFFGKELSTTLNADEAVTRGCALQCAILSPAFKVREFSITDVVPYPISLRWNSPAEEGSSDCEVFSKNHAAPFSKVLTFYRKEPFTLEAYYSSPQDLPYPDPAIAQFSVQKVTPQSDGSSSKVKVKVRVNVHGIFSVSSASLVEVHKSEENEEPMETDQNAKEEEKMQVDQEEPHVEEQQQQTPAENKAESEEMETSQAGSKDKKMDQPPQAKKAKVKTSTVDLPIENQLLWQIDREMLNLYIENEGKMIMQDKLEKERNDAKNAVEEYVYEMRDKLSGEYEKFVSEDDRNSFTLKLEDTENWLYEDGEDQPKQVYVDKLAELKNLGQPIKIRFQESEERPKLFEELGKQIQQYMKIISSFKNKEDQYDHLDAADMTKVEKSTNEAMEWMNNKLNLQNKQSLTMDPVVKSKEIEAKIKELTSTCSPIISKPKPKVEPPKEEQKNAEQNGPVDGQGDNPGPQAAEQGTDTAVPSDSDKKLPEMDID

No constants are given. Whether binding was seen depends on the method and setting. In cells and extracts the contact can be indirect. Some entries that bind do so weakly or less than the wild type.

Assay [1] has as its target human estrogen receptor alpha with C-terminal V5 epitope and His 6 tag (from pcDNA-ER) (human) (UniProt P03372). Briefly: GST pull-down, western blot (FIG. 1, lanes 3 to 6). A general note: In western blotting, separated proteins are transferred to a membrane and probed.
Assay [2] has the same target. Briefly: GST pull-down from ER expression COS-7 cell extract, western blot with anti-ERα antibody, with or without 10 µM E2.

For GST-HSPA4 (from UniProt P34932 1-840), the binding entry in assay [1] and in assay [2] was “binds” in each case.
